Results reported in patent US20240122894A1, “METHODS TO SYNTHESIZE FLAVONOID DIMERS AND OLIGOMERS AND THE USE THEREOF” (National University of Singapore, priority 2020, published 2024).

Experiment: EPR spectra of flavonoid radicals (hyperfine coupling constants, linewidth, center field)
Settings: pH 11; for G value: flavonoid radical, simulated EPR spectrum

Structure (SMILES)	center field (CF)	linewidth (LW)	G value
O=c1cc(-c2ccc(O)c(O)c2)oc2cccc(O)c12 [5,3′,4′-trihydroxyflavone]	328.348 mT	0.02 mT	2.0002
O=c1cc(-c2ccc(O)c(O)c2)oc2ccc(O)cc12 [6,3′,4′-trihydroxyflavone]	328.348 mT	0.02 mT	2.0002
